# Results reported in US20250388687A1.
# By UniProt entry, the sequences of proteins in these tests, tags left out. Where a name states a change or a piece, a line headed by the entry shows the natural chain unless it says otherwise. Residues count along the entry.
# UniProt P19235, residues 25-250: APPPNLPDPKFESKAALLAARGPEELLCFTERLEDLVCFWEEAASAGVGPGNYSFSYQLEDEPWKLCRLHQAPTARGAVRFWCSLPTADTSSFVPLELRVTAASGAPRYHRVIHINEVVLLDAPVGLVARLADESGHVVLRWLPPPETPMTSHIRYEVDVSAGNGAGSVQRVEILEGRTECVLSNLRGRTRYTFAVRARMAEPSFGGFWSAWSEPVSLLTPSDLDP
# No constants are given. Whether binding was seen depends on the method and setting. Some results given as binding are weak or reduced against the parent protein; the word gives no strength.
# B1: anti-EPOR antibody clonotype583 (antibody, V domains shown)
# VH: QVQLVQSGAEVKKPRASVKVSCEASGYTFTTYGISWVRQAPGQGLEWMGWISAYNGNTKYTQKLQGRVAMTTDTSTSTAYMEVRSLRSDDTAVYYCARSGYNWNYDYYFMDVWGTGTTVTVSS
# VL: QSILTQPPSVSATPGQRVTISCTGSDSNIGAGYDVHWYQQLPGAVPRLLIHDNIIRPSGVPDRFSGSKSDTSASLAISGLHAEDEADYYCQSYDISLSGSVVFGGGTKLTVL
# B2: anti-EPOR antibody clonotype587 (antibody, V domains shown)
# VH: QVQLQQSGPGLVKPSQTLSLTCAISGDSVSSNSAAWNWIRQSPSRGLEWLGRTYYRSKWYSDYAVSVKSRITINPDTSKNQFSLQLNSVTPEDTAVYYCARVDFGIVGAIDYWGQGTLVTVSS
# VL: SYELTQPPSVSVSPGQTARITCSGDGLSKKYAYWYQQKSGQAPVLVIYEDSKRPSGIPERFSGSSSGTMATLTVSGAQVEDEADYYCYSTDSSGKIFGGGTKLTVL
# B3: anti-EPOR antibody clonotype588 (antibody, V domains shown)
# VH: EVQLVESGGGLVKPGGSLRLSCAASAFTFSNYNMNWVRQAPGKGLEWVSSISSSTSYIYYADSVKGRFTVSRDNAKNSLYLQMNSLRAEDTAVYYCARDRDDFWSGYSPYFDYWGQGTLVTVSS
# VL: SSELTQDPAVSVALGQTVRITCQGDSLRSYYASWYQQKPGQAPVLVIYGKNNRPSGIPDRFSGSSSGNTASLTITGAQAEDEADYYCNSRDSSGNHWVFGGGTKLTVL
# B4: anti-EPOR antibody clonotype589 (antibody, V domains shown)
# VH: EVQLVESGGGLVKPGGSLRLSCAASGFTFSSYSMNWVRQAPGKGLEWVSSISSSSSYIYYADSVKGRFTISRDNAKNSLYLQMNSLRAEDTAVYYCAREKYDILTGYSPYFDYWGQGTLVTVSS
# VL: SSELTQDPAVSVALGQTVRITCQGDSLRSYYASWYQQKPGQAPVLVIYGKNNRPSGIPDRFSGSSSGNTASLTITGAQAEDEADYYCNSRDSSGNHWVFGGGTKLTVL
# B5: anti-EPOR antibody clonotype598 (antibody, V domains shown)
# VH: EVQMVESGGGLVQPGGSLRLSCAASGFTFSSHVMSWVRQAPGKGLEWVSVISGSESSTYYADSVKGRFTISSDNSKNTLYLQMNSLRAEDTAIYYCAKRAGSGTYYRGYYFDYWGQGTLVTVSS
# VL: SSELTQDPAVSVALGQTVRITCQGDSLRSYYASWYQQKPGQAPVLVIYGKNNRPSGIPDRFSGSSSGNTASLTITGAQAEDEADYYCNSRDSSGNHWVFGGGTKLTVL
# B6: anti-EPOR antibody clonotype599 (antibody, V domains shown)
# VH: LVQLVESGGGVVQPGRSLRLSCAASGFTFSSYGMHWVRQAPGKGLEWVTLIWYDGSNTYYAESVKGRFTISRDNSKSTLYLHMNSLRAEDSAVYYCAGTYYYDSSGYLNYMDVWGKGTTVTVSS
# VL: SSELTQDPAVSVALGQTVRITCQGDSLRSYYASWYQQKPGQAPVLVIYGKNNRPSGIPDRFSGSSSGNTASLTITGAQAEDEADYYCNSRDSSGNHLVFGGGTKLTVL
# B7: anti-EPOR antibody clonotype600 (antibody, V domains shown)
# VH: QLQLQESGPGLVKPSETLSLTCTVSGGSISSSSYYWGWIRQPPGKGLEWIGSIHYSGSTYYNPSLKSRVTTSVDTSKNQFSLKLSSVTAADTAVYYCASEGPYFDYWGQGTLVTVSS
# VL: SSELTQDPAVSVALGQTVRITCQGDSLRSYYASWYQQKPGQAPVLVIYGKNNRPSGIPDRFSGSSSGNTASLTITGAQAEDEADYYCNSRDSSGNHWVFGGGTKLTVL
# B8: anti-EPOR antibody clonotype601 (antibody, V domains shown)
# VH: QVQLVQSGAEVKKPGASVKVSCKASGYSFSSYGIGWVRQAPGQGLEWMGWISGYNGNTNYAQKFQGRVTMTTDTSTSTAHMEVKSLRSDDTAAYYCARAYCGGDCYYSNAFDAWGQGTMVTVSS
# VL: QSALTQPASVSGSPGQSITISCTGTSSDVGGYNYVSWYQQHPGKAPKLMIYEVSNRPSGVSNRFSGSKSGNTASLTISGLQAEDEADYYCSSYTSSSTVVFGGGTKLTVL
# B9: anti-EPOR antibody clonotype607 (antibody, V domains shown)
# VH: EVQLVESGGGLVQPGGSLRLSCAASGFTFSTYSVKWVRQAPGKGLEWVSYISSGSSTIYYADSVKGRFTISRDNAKNSLYLQMNSLRDEDTAVYYCARDPTTIFGVVPYYYMDVWGTGTTVTVSS
# VL: SSELTQDPAVSVALGQTVRITCQGDSLRSYYATWYQQKPGQAPVLVIYGRNNRPSGIPDRFSGSSSGNTASLTITGAQAEDEADYYCYSRDSSGNHLVFGGGTNLTVL
# B10: anti-EPOR antibody clonotype611 (antibody, V domains shown)
# VH: QVHLQQSGPGLVKPSQTLSLTCAISGDSVSSNSAAWNWIRQSPSRGLEWLGRTYYRSKWYNDYAVSVKSRITINSDTSKNQFSLQLNSVTPEDTAVYYCSRDRLIVGASYFDLWGRGTLVTVSS
# VL: SSELTQDPAVSVALGQTVRITCQGDSLRSYYASWYQQKPGQAPVLVFYGKNKRPSGIPDRFSGSSSGNTASLTITGAQAEDEADYYCNSRDSNGNHWVFGGGTKLSVL
# B11: anti-EPOR antibody clonotype612 (antibody, V domains shown)
# VH: EVQLVESGGGVVRPGGSLRLSCAASGFTFDDYGMSWVRQAPGKGLEWVSGINWNGGSTGYADSVKGRFTISRDNAKNSLYLQMNSLRAEDTALYYCAREKAPAHRSSWSWYFDLWGRGTLVTVSS
# VL: QSALTQPASVSGSPGQSITISCTGTSSDVGGYNYVSWYQQHPGKAPKLMIYDVSKRPSGVSNRFSGSKSGNTASLTISGLQAEDEADYYCCSYAGSSWVFGGGTKLTVL
# B12: anti-EPOR antibody clonotype625 (antibody, V domains shown)
# VH: QVQLQQWGAGLLKPSETLSLTCAVYGGSFSGYYWSWIRQPPGKGLEWIGEINHSGSTNYNPSLKSRVTISVDTSKNQFSLKLSSVTAADTAVYYCARGWGSSSWYYFDYWGQGTLVTVSS
# VL: SYELTQPPSVSVSPGQTARITCSGDALPKKYAYWYQQKSGQAPVLVIYEDNKRPSGIPERFSGSSSGTMATLTISGAQVEDEADYYCYSTDSSGNHRVFGGGTKLTVL
# B13: anti-EPOR antibody clonotype646 (antibody, V domains shown)
# VH: QLQLQESGPGLVKPSETLSLTCTVSGGSISSSGYYWGWIRQSPGKGLEWIGSFYYSGSTYYNPSLKSRVTISVDTSKNQFSLKLSSVTAADTAVYYCARQGRITMVRGVIPFDYWGQGTLVTVSS
# VL: QSALTQPASVSGSPGQSITISCTGTSSDVGGYNYVSWYQQHPGKAPKLMIYEVSNRPSGVSNRFSGSKSGNTASLTISGLQAEDEADYYCSSYTSSSTLVFGGGTKLTVL
# B14: anti-EPOR antibody clonotype647 (antibody, V domains shown)
# VH: QVQLQQWGAGLLKPSETLSLTCAVYGGSFSGYYWSWIRQPPGKGLEWIGEINHSGSTNYNPSLKSRVTISVDTSKNQFSLKLSSVTAADTAVYYCAGGYCSSTSCRYNWNYGGWFDPWGQGTLVTVSS
# VL: QAVVTQEPSLTVSPGGTVTLTCGSSTGAVTSGHYPYWFQQKPGQAPRTLIYDTSNKHSWTPARFSGSLLGGKAALTLSGAQPEDEAEYYCLLSYSGARVFGGGTKLTVL
# B15: anti-EPOR antibody clonotype573 (antibody, V domains shown)
# VH: EVQLVESGGGLVNPGGSLRLSCAASGFTFSNAWMSWVRQGPGRGLEWVGRIKSKSDGETIDYAAPVKGRFSFSRDDAENTLYLEMNSLKTEDTAVYYCTTEGSFNFYYFMDVWGKGTAVTVSS
# VL: SHMLTQPPSVSVAPGTTARITCGGNNFGSKSVHWYQQKPGQAPVLVIYYDSDRPSGIPERFSGSNSGNTATLTISRVEAGDEADYYCQVWDSTSDHYVFGTGTKVTVL
# Biological target: recombinant hEPOR-Fc (Sino Biological, Cat #10707-H02H) (human) (UniProt P19235)
# Experiment: B cells of immunised ATX-GL mice stained with fluorescent hEPOR-Fc, sorted, single-cell sequenced
row,Binder,binding
1,B1,binds
2,B2,binds
3,B3,binds
4,B4,binds
5,B5,binds
6,B6,binds
7,B7,binds
8,B8,binds
9,B9,binds
10,B10,binds
11,B11,binds
12,B12,binds
13,B13,binds
14,B14,binds
15,B15,binds
